Source: PubChem BioAssay AID540256 (National Center for Advancing Translational Sciences (NCATS), 2011)
Hit rate of the full screen: of about 300,000 compounds, about 3,700 (1.2%) were called active. Inconclusive results, whose numbers are uncertain, are shown with a selection of clear calls. The call rests on the fitted dose curve; tested in HEK293 cells. Potencies beside an inconclusive call are fits to weak or partial responses and may not hold up.

Experiment: qHTS for Inhibitors of binding or entry into cells for Lassa Virus; further: nearly all actives have a fitted effect of over 50% in size
Details: Lassa virus pseudotype entry inhibition, cell reporter; series mostly up to 37.9 µM
Potency means the concentration at half of the fitted maximal effect.

Row | Compound | Potency
1 | CC(C)CCN1CC(C(=O)NCc2ccc(F)cc2)CC1=O (stereo unspecified) | inconclusive: 3.26 µM [activator, partial curve, poor fit]
2 | CC(=O)Nc1ccc(S(=O)(=O)N2CCCCC2c2cccnc2)cc1 (stereo unspecified) | inactive
3 | CC(=O)Nc1ccc(NC2=C/C(=N/S(=O)(=O)c3cccs3)c3ccccc3C2=O)cc1 | inconclusive: 22.4 µM [inhibitor, partial curve, poor fit]
4 | Cc1cc2nn(-c3ccc(Cl)cc3)nc2cc1NC(=O)C(C)C | inconclusive: 0.708 µM [activator, full curve, poor fit]
5 | CCn1c(CN2CCN(c3cccc(Cl)c3)CC2)nc2c1c(=O)[nH]c(=O)n2C | inconclusive: 17.8 µM [inhibitor, single point]
6 | COc1ccc(CSc2nncn2N)cc1[N+](=O)[O-] | inactive
7 | C[C@@H](N)Cc1cnc[nH]1 | inconclusive: 0.0517 µM [inhibitor, partial curve, poor fit]
8 | COc1ccc(NP(=O)(Nc2ccc(OC)cc2)Oc2ccccc2)cc1 | inconclusive: 11.2 µM [inhibitor, partial curve, poor fit]
9 | Cc1cc(NCCCN)nc(-c2ccccc2O)n1 | inconclusive: 35.5 µM [activator, single point]
10 | COc1cc(NC(=O)COc2ccc(-n3ccnc3)cc2)cc(OC)c1 | inactive
11 | O=C(c1cc(-c2ccc(Br)cc2)on1)N1CCCC1 | inconclusive: 28.2 µM [inhibitor, partial curve, poor fit]
12 | CC1CCc2nc(NC(=O)CSc3nc4ccccc4o3)sc2C1 (stereo unspecified) | inconclusive: 35.5 µM [inhibitor, single point]
13 | O=C(Nc1ccc(C(=O)N2CCOCC2)cc1)c1cc(-c2cccnc2)nc2ccc(Cl)cc12 | inconclusive: 10 µM [inhibitor, partial curve, poor fit]
14 | CCOC(=O)c1ccc(N(C(=O)c2ccco2)C(C(=O)NC2CCCC2)c2ccncc2)cc1 (stereo unspecified) | inconclusive: 0.794 µM [inhibitor, partial curve, poor fit]
15 | C/C(=N/NC(=O)Nc1ccccc1)c1ccc(C)cc1 | inconclusive: 0.631 µM [inhibitor, full curve]
16 | Cn1c(=O)c2sccc2n2c(CCCC(=O)Nc3ccc(F)cc3F)nnc12 | inconclusive: 17.8 µM [inhibitor, single point]
17 | COC(=O)c1ccc(NC(=O)C(=O)NCC2CCCO2)cc1 (stereo unspecified) | inactive
18 | CCOc1ccc(NC(=O)Nc2ccc3c(c2)CCC3)cc1 | inactive
19 | Cc1ccc(S(=O)(=O)Nc2cccc(CP(=O)(c3ccccc3)c3ccccc3)c2)cc1 | inconclusive: 10 µM [inhibitor, partial curve]
20 | CS(=O)(=O)N(Cc1ccccc1)c1ccc(C(=O)NCc2ccccc2)cc1 | inconclusive: 32.6 µM [inhibitor, single point]
21 | O=C(CN1C(=O)c2cccc3cccc1c23)N1CCN(Cc2ccc3c(c2)OCO3)CC1 | inconclusive: 20 µM [inhibitor, single point]
22 | O=C(Nc1ccn(-c2ccccc2)n1)c1ccc(S(=O)(=O)N2CCCCCC2)cc1 | inactive
23 | O=C(Nc1nc2ccsc2c(=O)s1)c1ccco1 | inconclusive: 7.08 µM [activator, full curve, poor fit]
24 | CN(C)c1ccc(C=c2c3cc(O)ccc3n3c2cc(-c2ccccc2)[n+]3C)cc1 | inconclusive: 35.5 µM [inhibitor, single point]

Row | Compound | Potency
25 | Cc1ccc(C)c(N2CCN(C(=O)c3cccc(-n4c(C)nc5cccnc54)c3)CC2)c1 | inconclusive: 35.5 µM [inhibitor, single point]
26 | Cc1cccn2c(=O)c3cc(C(=O)N4CCCC(C)C4)sc3nc12 (stereo unspecified) | inconclusive: 12.6 µM [inhibitor, single point]
27 | CCOc1cc(/C=N/NC(=S)Nc2ccccc2C(F)(F)F)ccc1OCC(=O)N1CCOCC1 | inconclusive: 20.6 µM [inhibitor, single point]
28 | Cc1ccccc1C(=O)Nc1ccc(C(=O)N/N=C/c2ccc(O)cc2)cc1 | inconclusive: 11.2 µM [inhibitor, partial curve, poor fit]
29 | Cc1ccc(C2CCN(C(=O)c3cnn(-c4ccccc4Cl)c3C3CCN(C(=O)OC(C)(C)C)CC3)C2)cc1 (stereo unspecified) | inconclusive: 1.41 µM [inhibitor, full curve, poor fit]
30 | CCCOC(=O)c1c(NC(=O)c2nc3ncccn3n2)sc(C(=O)OCC)c1C | inactive
31 | CN(C)C(=O)Oc1ccc2c(c1)O/C(=C\c1cccc(Cl)c1)C2=O | inconclusive: 7.94 µM [activator, partial curve, poor fit]
32 | CCC(C)(C)n1nnnc1C(C(C)C)N1CCSCC1 (stereo unspecified) | inconclusive: 0.073 µM [activator, full curve, poor fit]
33 | Cc1cc(NC(=O)c2ccoc2C)no1 | inactive
34 | Cn1c(SCC(=O)Nc2ccc(F)cc2)nc2c(c1=O)SCC2 | inconclusive: 6.31 µM [activator, single point]
35 | CCc1cccc(NC(=S)N(CCCN2CCOCC2)C(C)c2cc3cccc(OC)c3o2)c1 (stereo unspecified) | inconclusive: 35.5 µM [inhibitor, single point]
36 | Cc1ccccc1NC(=O)c1ccccc1O | inactive
37 | CN(C)c1ccc(N=Nc2ccccc2C(=O)OCC(=O)N(C)c2ccccc2)cc1 | inconclusive: 23.1 µM [inhibitor, partial curve]
38 | Fc1ccc(COc2cccc3cccnc23)cc1 | inactive
39 | CC12CCC(C(=O)N3CCN(Cc4ccccc4)CC3)(OC1=O)C2(C)C (stereo unspecified) | inconclusive: 2.06 µM [inhibitor, single point]
40 | CCCCN(CC)C(=O)Cn1c(=O)n(-c2ccc(OCC)cc2)c(=O)c2c3c(sc21)CCC3 | inactive
41 | O=C(NCc1ccco1)c1cccc(S(=O)(=O)N2CCOCC2)c1 | inactive
42 | COc1ccc(CN(C(=O)c2ccc(-c3ccccc3)[nH]2)C(C(=O)NC(C)(C)C)c2ccncc2)cc1 (stereo unspecified) | inconclusive: 11.2 µM [inhibitor, partial curve, poor fit]
43 | CCOC(=O)Cc1csc(Nc2c(C)n(C)n(-c3ccccc3)c2=O)n1 | inconclusive: 0.116 µM [inhibitor, full curve, poor fit]
44 | O=C(c1ccc2c(c1)OCO2)c1cn(Cc2ccc(F)cc2)c2ccccc2c1=O | inactive
45 | Cn1nc(C(=O)N2CCN(c3ccccc3)CC2)c2c1-c1ccccc1SC2 | inactive
46 | O=C(CCc1nnc2ccc(NCc3ccc(F)cc3)nn12)NC1CCCC1 | inactive
47 | Cc1ccc(Cn2nnc3c(=O)[nH]c(C4CCN(S(=O)(=O)Cc5ccccc5)CC4)nc32)cc1 | active: 11.2 µM
48 | CC(C)COc1cccc(C(=O)NC2(C)CCS(=O)(=O)C2)c1 (stereo unspecified) | inconclusive: 0.891 µM [inhibitor, full curve, poor fit]

In a second layout: 2 of the compounds above.
Cn1nc(C(=O)N2CCN(c3ccccc3)CC2)c2c1-c1ccccc1SC2
  Potency: inactive
CC(C)COc1cccc(C(=O)NC2(C)CCS(=O)(=O)C2)c1 (stereo unspecified)
  Potency: inconclusive: 0.891 µM [inhibitor, full curve, poor fit]

(listing goes on)

Row | Compound | Potency
49 | CCn1c(SCC(=O)c2ccccc2)nnc1-c1cccs1 | inconclusive: 20.6 µM [activator, single point]
50 | COc1cc(-c2nnn(CC(=O)N3CCOCC3)n2)cc(OC)c1OC | inactive
51 | COc1cc(OC)c(NC(=O)c2ccc3nc(C(C)C)oc3c2)cc1Cl | inactive
52 | CCOCCCNC(=O)c1c[nH]c2ccc(C)cc2c1=O | inconclusive: 14.6 µM [inhibitor, partial curve]
53 | NC(=O)c1c(Nc2nc3c(F)cccc3s2)sc2c1CCCC2 | inconclusive: 35.5 µM [activator, partial curve, poor fit]
54 | O=C(NC(NC1CCS(=O)(=O)C1)C(=O)c1ccccc1)c1ccc(Cl)cc1 (stereo unspecified) | inactive
55 | CC(CC(C#N)(c1ccccc1)c1ccccc1)N1CCCCC1 (stereo unspecified) | inconclusive: 20 µM [inhibitor, partial curve, poor fit]
56 | Cc1ccc(NC(=O)C2CCCN(S(=O)(=O)c3cccc4cccnc34)C2)cc1Cl (stereo unspecified) | inconclusive: 35.5 µM [inhibitor, single point]
57 | c1ccc(-c2csc(Nc3ncccn3)n2)cc1 | inactive
58 | COc1ccc(N2CCN(S(=O)(=O)c3cc(C)ccc3OC)CC2)cc1 | inconclusive: 6.31 µM [inhibitor, partial curve, poor fit]
59 | N#Cc1nc(-c2ccccc2F)oc1NCCc1ccccc1 | inactive
60 | Cc1cc(C)n(CNc2nc(C(F)(F)F)cs2)n1 | inactive
61 | Cc1cnc(C(=O)Nc2nnc(SCc3c(Cl)cccc3Cl)s2)cn1 | inactive
62 | Clc1cc(I)cc(Cl)c1NC1=NCCN1 | inconclusive: 2.59 µM [activator, full curve]
63 | CCCCCCCCNS(=O)(=O)CCNCc1ccco1 | inconclusive: 31.5 µM [activator, single point]
64 | CN(CCO)c1ccc(C=NNc2ccc([N+](=O)[O-])cc2S(=O)(=O)Nc2ccccc2C(=O)O)cc1 | inactive
65 | CC/C(=C\C1CCCCC1)C(NP(=O)(c1ccccc1)c1ccccc1)c1ccccc1 (stereo unspecified) | inconclusive: 4.61 µM [inhibitor, full curve, poor fit]
66 | Cc1cc(C)cc(-n2nnc(C(=O)NCc3ccccc3)c2N)c1 | inactive
67 | CCN(CC)c1nc(Nc2ccccc2)nc(Oc2ccc(=O)n(C)n2)n1 | inactive
68 | COc1ccccc1C(=O)Nc1ccc(Oc2ncnc3sc(-c4ccccc4)cc23)cc1 | inactive
69 | CN(C)CCCN(C(=O)c1ccc2c(c1)CCCC2)c1nc2ccc(F)cc2s1 | active: 15.8 µM
70 | COc1ccc(NC(=O)CSc2nnc(-c3cccs3)n2N)cc1S(N)(=O)=O | inconclusive: 5.62 µM [inhibitor, single point]
71 | Cc1ccc(C[n+]2cc(-c3ccc(Cl)cc3)n3c2CCC3)cc1 | inconclusive: 14.1 µM [inhibitor, single point]

Copied from above: nos. 56–61
Row | Compound | Potency
56 | Cc1ccc(NC(=O)C2CCCN(S(=O)(=O)c3cccc4cccnc34)C2)cc1Cl (stereo unspecified) | inconclusive: 35.5 µM [inhibitor, single point]
57 | c1ccc(-c2csc(Nc3ncccn3)n2)cc1 | inactive
58 | COc1ccc(N2CCN(S(=O)(=O)c3cc(C)ccc3OC)CC2)cc1 | inconclusive: 6.31 µM [inhibitor, partial curve, poor fit]
59 | N#Cc1nc(-c2ccccc2F)oc1NCCc1ccccc1 | inactive
60 | Cc1cc(C)n(CNc2nc(C(F)(F)F)cs2)n1 | inactive
61 | Cc1cnc(C(=O)Nc2nnc(SCc3c(Cl)cccc3Cl)s2)cn1 | inactive
